Measurements reported in PMC9481523.
Where two headings read alike, the source gives them in different places. These are yes or no findings as the source states them, for the method shown. Binding seen in cells or lysates may run through a third protein. Some results given as binding are weak or reduced against the parent protein; the word gives no strength. One block for each molecule: values may come before it.

Chains of the proteins cited; added tags and fusions are not shown.
UniProt P22314: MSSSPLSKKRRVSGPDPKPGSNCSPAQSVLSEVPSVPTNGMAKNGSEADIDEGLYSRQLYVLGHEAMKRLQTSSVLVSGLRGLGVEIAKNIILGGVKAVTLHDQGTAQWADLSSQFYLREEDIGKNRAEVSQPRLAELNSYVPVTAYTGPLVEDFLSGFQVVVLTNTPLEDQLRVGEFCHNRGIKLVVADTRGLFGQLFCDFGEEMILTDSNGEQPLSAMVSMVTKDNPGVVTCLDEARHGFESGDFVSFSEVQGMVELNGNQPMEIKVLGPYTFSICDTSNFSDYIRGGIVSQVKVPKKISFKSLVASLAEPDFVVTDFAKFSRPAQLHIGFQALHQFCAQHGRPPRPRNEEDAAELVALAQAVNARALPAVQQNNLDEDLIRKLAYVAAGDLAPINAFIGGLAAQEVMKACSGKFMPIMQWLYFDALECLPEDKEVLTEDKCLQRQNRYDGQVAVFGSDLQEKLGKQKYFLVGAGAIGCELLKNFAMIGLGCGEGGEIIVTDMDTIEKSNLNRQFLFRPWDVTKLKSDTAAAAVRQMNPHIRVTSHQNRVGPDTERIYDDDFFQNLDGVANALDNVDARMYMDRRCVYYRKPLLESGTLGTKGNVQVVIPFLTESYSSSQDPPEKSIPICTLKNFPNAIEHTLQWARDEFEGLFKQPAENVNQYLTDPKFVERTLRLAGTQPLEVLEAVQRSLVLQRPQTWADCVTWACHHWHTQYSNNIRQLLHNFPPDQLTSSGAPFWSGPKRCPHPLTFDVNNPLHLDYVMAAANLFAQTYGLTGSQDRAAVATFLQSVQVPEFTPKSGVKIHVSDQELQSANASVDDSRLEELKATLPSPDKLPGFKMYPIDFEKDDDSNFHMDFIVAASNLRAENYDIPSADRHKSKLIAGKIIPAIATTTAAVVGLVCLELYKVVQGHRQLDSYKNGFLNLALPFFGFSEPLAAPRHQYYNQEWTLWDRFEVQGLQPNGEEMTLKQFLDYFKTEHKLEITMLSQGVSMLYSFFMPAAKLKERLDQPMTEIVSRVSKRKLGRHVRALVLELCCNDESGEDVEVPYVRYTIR
UniProt P26447: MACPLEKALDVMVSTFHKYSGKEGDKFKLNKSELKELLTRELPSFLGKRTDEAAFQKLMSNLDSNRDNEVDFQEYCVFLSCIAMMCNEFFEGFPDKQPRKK
UniProt P60903: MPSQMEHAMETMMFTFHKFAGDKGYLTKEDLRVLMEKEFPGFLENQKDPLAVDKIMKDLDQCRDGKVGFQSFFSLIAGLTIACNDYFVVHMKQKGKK

What was measured:
Experiment in all cases: co-IP; endogenous proteins in SCC15 cell lysates (wild-type or control cells), reciprocal IPs with antibodies to each partner, IP/Co-IP Kit (Proteintech), western blot; UBE1 with S100A14 also in shCAV2 SCC15 cells
[1] = biological target: T1, S100A14 (human (endogenous in SCC15)) (UniProt Q9HCY8)
T1 sequence: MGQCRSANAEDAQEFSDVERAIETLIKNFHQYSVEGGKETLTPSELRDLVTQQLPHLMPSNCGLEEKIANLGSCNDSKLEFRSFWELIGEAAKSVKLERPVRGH

[2] = biological target: T2, Caveolin-2 (CAV2) (human (endogenous in SCC15)) (UniProt P51636)
T2 sequence: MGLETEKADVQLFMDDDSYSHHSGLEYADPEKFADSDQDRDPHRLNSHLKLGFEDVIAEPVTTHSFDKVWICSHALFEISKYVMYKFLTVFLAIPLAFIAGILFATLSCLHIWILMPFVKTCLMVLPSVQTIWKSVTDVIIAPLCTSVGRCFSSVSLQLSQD

[3] = biological target: T2, Caveolin-2 (CAV2) (human (endogenous in SCC15)); remark: listed apart in the source

Molecule: E1 ubiquitin-activating enzyme UBE1 (from UniProt P22314 1-1058)
binding [1]: binds

B1: S100A7 (protein, UniProt P31151 1-101)
chain: MSNTQAERSIIGMIDMFHKYTRRDDKIEKPSLLTMMKENFPNFLSACDKKGTNYLADVFEKKDKNEDKKIDFSEFLSLLGDIATDYHKQSHGAAPCSGGSQ
binding [3]: binds

Results, then the molecule that gave them:

binding [2]: binds
Molecule: S100A4 (from UniProt P26447 1-101)

binding [2]: binds
Molecule: S100A10 (from UniProt P60903 1-97)

binding [3]: binds
B2: S100A14 (protein, UniProt Q9HCY8 1-104)
chain: T1 sequence
